Test results reported in PubChem BioAssay AID624297 (National Center for Advancing Translational Sciences (NCATS), 2012).
In all, about 340,000 compounds went through this assay and about 6,200 (1.8%) were called active. Inconclusive means that the source gave no clear call. Such entries were picked first, then a sample of the others. Calls come from the whole dose curve; as a rule, active = well fitted activation curve with a large enough effect; inconclusive = small, poorly fitted or top-dose-only effect; inactive = no such curve, though single readings can be large or run the other way. Potencies of inconclusive entries are doubtful fits and often do not repeat.

Experiment: A quantitative high throughput screen for small molecules that induce DNA re-replication in SW480 colon adenocarcinoma cells. For re-replication activation: % of control where 0% means no effect. Note: nearly all actives have a fitted effect of over 55% in size.
Conditions: Hoechst DNA content imaging, 48 h; re-replication activation: at 46.1 µM (top of the series) unless noted
Method in brief: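 Quantitative HTS format with DMSO vehicle controls; 48 hr drug incubation at 37 C, then 40 min Hoechst staining and scanning imager measurement at 405 nm excitation.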
Potency is the fitted concentration of half-maximal effect.

| SMILES | Potency | re-replication activation |
| --- | --- | --- |
| C/C(=N\NC(=O)COc1ccc(C(C)(C)C)cc1)c1ccc(-n2ccnc2)cc1 | inconclusive: 18.4 µM [activator, partial curve, poor fit] | – |
| CCN(CC)Cc1c(O)ccc2c(=O)c(-c3ccccc3)coc12 | – | inconclusive: -3.27% [activator] |
| CC(=O)N1CCN(CCS(=O)(=O)c2cc(Cl)ccc2Cl)CC1 | inconclusive: 29.1 µM [activator, single point] | – |
| Cc1ccc(/C=C/c2onc(C)c2S(=O)(=O)N2CCC(C(=O)N3CCN(C)CC3)CC2)cc1 | inconclusive: 20.6 µM [activator, single point] | – |
| CCS(=O)(=O)c1ncc(Cl)c(C(=O)Nc2ccc(S(=O)(=O)N(C)c3ccccc3)cc2)n1 | active: 10.3 µM | – |
| CC(C)NCCCOc1ccc(Cl)cc1Br | – | inactive: -1.69% |
| C#Cc1ccc([C@@H]2C=C(C(=O)OCC=C)O[C@H](OCC)[C@H]2CCCO)cc1 | inconclusive: 16.4 µM [activator, partial curve, poor fit] | – |
| O=c1cc(Br)c(O)c(Br)cc1Br | inconclusive: 29.1 µM [activator, partial curve, poor fit] | – |
| Cc1ccc(S(=O)(=O)NC2CCCCC2)cc1 | – | inactive: -3.12% |
| Cc1cc(/C=C2/C(=N)N3C(=NC2=O)SN=C3S(C)(=O)=O)c(C)n1-c1ccccc1 | inconclusive: 14.6 µM [activator, single point] | – |
| COc1cccc(-c2cc(=O)c3cc(NC(=O)c4ccccc4)ccc3[nH]2)c1 | active: 2.91 µM | – |
| COc1ccc(Sc2cnn(-c3ccccc3)c(=O)c2Cl)cc1 | – | inactive: -3.38% |
| Nc1nc(CCl)nc(N(c2ccccc2)c2ccccc2)n1 | active: 1.16 µM | – |
| CCOC(=O)C1CCN(C(=O)c2ccc3c(c2)NC(=O)/C(=C\c2ccc(C)cc2)S3)CC1 | inconclusive: 18.4 µM [activator, single point] | – |
| Cc1nc(N2CCOCC2)c2c3c(sc2n1)CCC3 | inconclusive: 3.26 µM [activator, partial curve, poor fit] | – |
| Cc1cc(C)c2cccc(NC(=S)NC(=O)c3ccccc3)c2n1 | active: 4.11 µM | – |
| Cc1ccc(N2C(=O)C(Cl)=C(NCc3ccccc3)C2=O)c(C)c1 | – | inactive: -6.42% |
| COc1cc(/C=C/C(=O)OCC(=O)NCCN2C(=O)CSC2=O)ccc1OCC#N | inconclusive: 29.1 µM [activator, single point] | – |
| COc1ccc2c(c1)sc(=NC(=O)CS(=O)(=O)c1ccc(F)cc1)n2C | inconclusive: 25.9 µM [activator, partial curve, poor fit] | – |
| COc1ccc(CN2CCN(CC(O)Cn3c4ccccc4c4ccccc43)CC2)cc1 (centres undefined) | inconclusive: 29.1 µM [activator, single point] | – |
| CN=C1c2cc3c(Br)c(OC)ccc3n2CCN1C | inconclusive: 29.1 µM [activator, single point] | – |
| Cc1sc2ncnc(OCC(=O)N3CCN(S(=O)(=O)c4ccccc4)CC3)c2c1C | inconclusive: 29.1 µM [activator, partial curve, poor fit] | – |

| SMILES | Potency | re-replication activation |
| --- | --- | --- |
| Cc1ccc2c(CN3CCN(S(=O)(=O)c4ccc(Cl)cc4)CC3)cc(=O)oc2c1C | inconclusive: 0.164 µM [activator, full curve, poor fit] | – |
| O=C(CSCC(=O)NN=Cc1ccccc1O)NN=Cc1ccccc1O | inconclusive: 3.66 µM [activator, full curve, poor fit] | – |
| CC(C)c1onc(C(=O)NCc2ccc(Cl)cc2)c1[N+](=O)[O-] | inconclusive: 29.1 µM [activator, single point] | – |
| Cc1nc(Nc2nc(CSc3ccc(Cl)cc3)cc(=O)[nH]2)nc2ccccc12 | inconclusive: 29.1 µM [activator, single point] | – |
| Cc1ccc(C(=O)N(CCc2ccccc2)Cc2ccccc2)cc1S(=O)(=O)N1CCOCC1 | – | inactive: 5.05% |
| CC1CC(OC(=O)c2ccccc2O)CC(C)(C)C1 (centres undefined) | – | inactive: -6.34% |
| O=C(COc1ccc(C(=O)c2ccccc2)cc1)NC1CCCCC1 | – | inactive: 9.13% |
| CCOC(=O)c1sc2cc([N+](=O)[O-])cc(SCCO)c2c1N | inconclusive: 0.164 µM [activator, full curve, poor fit] | – |
| CC(C)=CCC/C(C)=C/CNC(=O)C[C@H]1C[C@H](C(=O)N(C(C)C)C(C)C)[C@@]2(C)c3[nH]c4cc(CCC(=O)N(C)C)ccc4c3CCN2C1=O | – | inactive: 4.4% |
| COc1cccc2c1O/C(=N\O)C(C(=O)Nc1ccc(C)cc1)C2 (centres undefined) | inconclusive: 20.6 µM [activator, single point] | – |
| CC1CCN(C(=O)C2CCCN(S(=O)(=O)c3cccc4nsnc34)C2)CC1 (centres undefined) | inconclusive: 0.58 µM [activator, full curve, poor fit] | – |
| Cc1cnc(NC(=O)Nc2ccc(Cl)cc2)s1 | – | inactive: -10.9% |
| Cc1cc(-c2ccc(C)c(S(=O)(=O)NCCCN3CCN(c4ccccc4F)CC3)c2)on1 | inconclusive: 16.4 µM [activator, single point] | – |
| N#CCc1c(C#N)c(N)nc(N2CCCC2)c1C#N | active: 14.6 µM | – |
| COc1ccc(Cc2nc3ccc(C(=O)N(C)Cc4cc(C)[nH]n4)cc3o2)cc1OC | inconclusive: 0.013 µM [activator, full curve, poor fit] | – |
| N#Cc1cc2nc(O)c(O)nc2cc1[N+](=O)[O-] | – | inactive: 8.3% |
| CN(CC(=O)Nc1ccc2c(c1)OCCO2)S(=O)(=O)c1ccc(Br)s1 | – | inactive: -3.61% |
| CC(C)Oc1ccc(/C=N/NC(N)=S)cc1 | inconclusive: 25.9 µM [activator, single point] | – |
| COc1ccc(-c2csc(N(CC3CCCO3)C(=O)c3ccco3)n2)cc1 (centres undefined) | inconclusive: 23.1 µM [activator, single point] | – |
| CN1C(=O)c2ccccc2C(C(=O)O)C1c1cccc(Cl)c1 (centres undefined) | inconclusive: 20.6 µM [activator, partial curve, poor fit] | – |
| CSC(=S)N/N=C(\C)c1ccccc1 | inconclusive: 14.6 µM [activator, single point] | – |
| C/C(=N\NC(=S)NC1CCCCC1)c1ccc(C)o1 | inconclusive: 5.17 µM [activator, single point] | – |
